These are yes or no findings as the source states them, for the method shown. In cells and extracts the contact can be indirect. A yes stands for co-enrichment or nearness to the bait. Other partners may have been found.
Biological target: KAT6A (human (endogenous in PDLSCs)) (UniProt Q92794)
Assay: affinity purification with mass spectrometry; KAT6A-associated proteins collected from PDLSC lysate as in the Co-IP assay (anti-KAT6A, protein A-Sepharose), SDS-PAGE with silver staining, LC-MS/MS; IgG group as negative reference

Chains of the proteins cited; added tags and fusions are not shown.
UniProt Q92794: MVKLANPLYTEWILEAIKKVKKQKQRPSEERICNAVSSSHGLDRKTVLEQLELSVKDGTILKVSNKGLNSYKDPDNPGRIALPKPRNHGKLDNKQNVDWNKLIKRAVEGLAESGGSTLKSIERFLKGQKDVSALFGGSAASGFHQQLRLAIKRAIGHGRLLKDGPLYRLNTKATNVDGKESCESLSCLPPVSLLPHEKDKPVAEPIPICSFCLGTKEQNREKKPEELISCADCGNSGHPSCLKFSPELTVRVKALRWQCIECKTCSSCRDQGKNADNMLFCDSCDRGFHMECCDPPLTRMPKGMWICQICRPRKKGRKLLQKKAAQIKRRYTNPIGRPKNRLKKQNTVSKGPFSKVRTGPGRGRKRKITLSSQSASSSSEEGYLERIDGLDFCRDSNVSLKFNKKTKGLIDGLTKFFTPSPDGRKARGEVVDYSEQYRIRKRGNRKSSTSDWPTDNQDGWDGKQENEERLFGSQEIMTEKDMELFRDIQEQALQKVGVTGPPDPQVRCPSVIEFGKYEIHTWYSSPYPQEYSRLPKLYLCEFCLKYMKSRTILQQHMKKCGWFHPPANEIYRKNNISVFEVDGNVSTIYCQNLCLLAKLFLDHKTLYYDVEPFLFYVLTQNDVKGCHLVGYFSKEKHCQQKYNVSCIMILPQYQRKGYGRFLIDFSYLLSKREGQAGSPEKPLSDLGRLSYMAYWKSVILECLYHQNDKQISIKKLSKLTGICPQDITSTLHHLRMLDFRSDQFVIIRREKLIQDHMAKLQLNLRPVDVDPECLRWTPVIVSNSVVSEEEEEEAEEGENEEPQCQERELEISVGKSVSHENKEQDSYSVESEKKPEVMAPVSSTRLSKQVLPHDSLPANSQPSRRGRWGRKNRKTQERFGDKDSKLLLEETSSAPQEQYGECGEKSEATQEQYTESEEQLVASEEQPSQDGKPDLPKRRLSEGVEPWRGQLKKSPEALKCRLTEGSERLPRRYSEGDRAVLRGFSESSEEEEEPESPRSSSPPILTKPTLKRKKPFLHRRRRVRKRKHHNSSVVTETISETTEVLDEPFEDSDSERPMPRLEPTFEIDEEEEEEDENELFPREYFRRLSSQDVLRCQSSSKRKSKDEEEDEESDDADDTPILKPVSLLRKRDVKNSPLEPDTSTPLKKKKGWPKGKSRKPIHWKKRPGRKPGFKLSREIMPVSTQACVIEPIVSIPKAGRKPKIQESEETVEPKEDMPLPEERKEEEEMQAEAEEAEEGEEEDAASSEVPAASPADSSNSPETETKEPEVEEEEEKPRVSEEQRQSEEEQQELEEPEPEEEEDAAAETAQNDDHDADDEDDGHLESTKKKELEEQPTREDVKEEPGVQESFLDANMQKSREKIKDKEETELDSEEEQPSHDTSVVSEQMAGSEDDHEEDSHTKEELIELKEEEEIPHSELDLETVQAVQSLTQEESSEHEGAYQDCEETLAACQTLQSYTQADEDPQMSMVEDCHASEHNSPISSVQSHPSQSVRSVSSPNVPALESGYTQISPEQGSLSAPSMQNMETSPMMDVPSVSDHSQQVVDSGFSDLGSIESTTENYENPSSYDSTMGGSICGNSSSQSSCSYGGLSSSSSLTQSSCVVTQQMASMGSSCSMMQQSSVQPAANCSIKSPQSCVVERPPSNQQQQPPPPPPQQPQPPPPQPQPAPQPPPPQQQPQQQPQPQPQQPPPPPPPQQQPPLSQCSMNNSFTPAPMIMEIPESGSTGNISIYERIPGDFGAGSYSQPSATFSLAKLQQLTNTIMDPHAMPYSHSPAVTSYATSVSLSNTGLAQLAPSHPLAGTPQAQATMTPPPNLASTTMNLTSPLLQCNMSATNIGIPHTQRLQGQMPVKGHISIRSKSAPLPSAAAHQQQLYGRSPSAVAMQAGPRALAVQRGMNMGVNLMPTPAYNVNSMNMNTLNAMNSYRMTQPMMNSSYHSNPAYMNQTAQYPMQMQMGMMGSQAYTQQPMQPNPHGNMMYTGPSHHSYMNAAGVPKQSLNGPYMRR
UniProt P46937: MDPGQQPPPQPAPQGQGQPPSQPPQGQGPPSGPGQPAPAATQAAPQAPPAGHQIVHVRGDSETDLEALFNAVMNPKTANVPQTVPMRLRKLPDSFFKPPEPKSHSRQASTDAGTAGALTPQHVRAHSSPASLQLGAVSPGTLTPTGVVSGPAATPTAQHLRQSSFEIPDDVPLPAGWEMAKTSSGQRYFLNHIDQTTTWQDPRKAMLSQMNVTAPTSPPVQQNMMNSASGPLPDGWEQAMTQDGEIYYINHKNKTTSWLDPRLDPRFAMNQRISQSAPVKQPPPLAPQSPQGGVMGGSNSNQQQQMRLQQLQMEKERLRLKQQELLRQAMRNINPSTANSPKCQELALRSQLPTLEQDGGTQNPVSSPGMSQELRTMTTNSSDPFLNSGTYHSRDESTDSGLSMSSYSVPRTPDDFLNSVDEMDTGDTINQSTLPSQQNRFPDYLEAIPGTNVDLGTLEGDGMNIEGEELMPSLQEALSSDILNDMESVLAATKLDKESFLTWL

- binding: binds
Substance: YAP (from UniProt P46937 1-504)

Source: PMC11317454
